No constants are given. Whether binding was seen depends on the method and setting. In cells and extracts the contact can be indirect. Some entries that bind do so weakly or less than the wild type.

The target in this assay is T1, human nitrilase 1 (NIT1) (human (endogenous in CACO2)) (UniProt Q86X76).
T1 sequence: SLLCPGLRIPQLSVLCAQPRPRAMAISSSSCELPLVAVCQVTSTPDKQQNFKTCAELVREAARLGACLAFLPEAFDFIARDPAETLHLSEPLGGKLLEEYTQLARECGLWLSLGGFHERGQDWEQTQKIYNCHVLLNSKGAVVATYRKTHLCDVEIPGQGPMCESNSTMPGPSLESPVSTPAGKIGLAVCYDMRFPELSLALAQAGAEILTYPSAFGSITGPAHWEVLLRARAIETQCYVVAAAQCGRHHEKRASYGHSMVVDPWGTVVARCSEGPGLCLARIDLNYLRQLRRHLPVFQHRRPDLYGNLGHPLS
The experiment in a line: co-IP; endogenous proteins in CACO2 cell lysate; NIT1, SARA or SMAD2/3 antibody added overnight at 4 °C, magnetic beads 6 h, washed six times in PBS, eluted in Laemmli buffer, western blotting. (Immunoblotting shows a protein as a band on a membrane.)

B1: ZFYVE9 (SARA/SMADIP) (protein, UniProt O95405 1-1425)
chain: MENYFQAEAYNLDKVLDEFEQNEDETVSSTLLDTKWNKILDPPSHRLSFNPTLASVNESAVSNESQPQLKVFSLAHSAPLTTEEEDHCANGQDCNLNPEIATMWIDENAVAEDQLIKRNYSWDDQCSAVEVGEKKCGNLACLPDEKNVLVVAVMHNCDKRTLQNDLQDCNNYNSQSLMDAFSCSLDNENRQTDQFSFSINESTEKDMNSEKQMDPLNRPKTEGRSVNHLCPTSSDSLASVCSPSQLKDDGSIGRDPSMSAITSLTVDSVISSQGTDGCPAVKKQENYIPDEDLTGKISSPRTDLGSPNSFSHMSEGILMKKEPAEESTTEESLRSGLPLLLKPDMPNGSGRNNDCERCSDCLVPNEVRADENEGYEHEETLGTTEFLNMTEHFSESQDMTNWKLTKLNEMNDSQVNEEKEKFLQISQPEDTNGDSGGQCVGLADAGLDLKGTCISESEECDFSTVIDTPAANYLSNGCDSYGMQDPGVSFVPKTLPSKEDSVTEEKEIEESKSECYSNIYEQRGNEATEGSGLLLNSTGDLMKKNYLHNFCSQVPSVLGQSSPKVVASLPSISVPFGGARPKQPSNLKLQIPKPLSDHLQNDFPANSGNNTKNKNDILGKAKLGENSATNVCSPSLGNISNVDTNGEHLESYEAEISTRPCLALAPDSPDNDLRAGQFGISARKPFTTLGEVAPVWVPDSQAPNCMKCEARFTFTKRRHHCRACGKVFCASCCSLKCKLLYMDRKEARVCVICHSVLMNAQAWENMMSASSQSPNPNNPAEYCSTIPPLQQAQASGALSSPPPTVMVPVGVLKHPGAEVAQPREQRRVWFADGILPNGEVADAAKLTMNGTSSAGTLAVSHDPVKPVTTSPLPAETDICLFSGSITQVGSPVGSAMNLIPEDGLPPILISTGVKGDYAVEEKPSQISVMQQLEDGGPDPLVFVLNANLLSMVKIVNYVNRKCWCFTTKGMHAVGQSEIVILLQCLPDEKCLPKDIFNHFVQLYRDALAGNVVSNLGHSFFSQSFLGSKEHGGFLYVTSTYQSLQDLVLPTPPYLFGILIQKWETPWAKVFPIRLMLRLGAEYRLYPCPLFSVRFRKPLFGETGHTIMNLLADFRNYQYTLPVVQGLVVDMEVRKTSIKIPSNRYNEMMKAMNKSNEHVLAGGACFNEKADSHLVCVQNDDGNYQTQAISIHNQPRKVTGASFFVFSGALKSSSGYLAKSSIVEDGVMVQITAENMDSLRQALREMKDFTITCGKADAEEPQEHIHIQWVDDDKNVSKGVVSPIDGKSMETITNVKIFHGSEYKANGKVIRWTEVFFLENDDQHNCLSDPADHSRLTEHVAKAFCLALCPHLKLLKEDGMTKLGLRVTLDSDQVGYQAGSNGQPLPSQYMNDLDSALVPVIHGGACQLSEGPVVMELIFYILENIV
For B1, the binding result is “binds”.
